Measurements from patent US20240252593A1, “ASSESSING AND TREATING OBESITY” (Mayo Foundation for Medical Education and Research, priority 2021, published 2024).
At least one compound was matched to its structure with a doubt left.

Tested on: participants with obesity (BMI≥30 kg/m^2)
Test: Nutrient drink test: calories to fullness and maximum tolerated calories (Example 5)
Format: in vivo, human

## CCCCCCCCCCCCCCCC(=O)N[C@@H](CCC(=O)NCCCC[C@H](NC(=O)[C@H](C)NC(=O)[C@H](C)NC(=O)[C@H](CCC(N)=O)NC(=O)CNC(=O)[C@H](CCC(=O)O)NC(=O)[C@H](CC(C)C)NC(=O)[C@H](Cc1ccc(O)cc1)NC(=O)[C@H](CO)NC(=O)[C@H](CO)NC(=O)[C@@H](NC(=O)[C@H](CC(=O)O)NC(=O)[C@H](CO)NC(=O)[C@@H](NC(=O)[C@H](Cc1ccccc1)NC(=O)[C@@H](NC(=O)CNC(=O)[C@H](CCC(=O)O)NC(=O)[C@H](C)NC(=O)[C@@H](N)Cc1cnc[nH]1)[C@@H](C)O)[C@@H](C)O)C(C)C)C(=O)N[C@@H](CCC(=O)O)C(=O)N[C@@H](Cc1ccccc1)C(=O)N[C@H](C(=O)N[C@@H](C)C(=O)N[C@@H](Cc1c[nH]c2ccccc12)C(=O)N[C@@H](CC(C)C)C(=O)N[C@H](C(=O)N[C@@H](CCCNC(=N)N)C(=O)NCC(=O)N[C@@H](CCCNC(=N)N)C(=O)NCC(=O)O)C(C)C)[C@@H](C)CC)C(=O)O [liraglutide]
At 16 weeks
  change in maximum tolerated kCal: no change
Change from baseline after 16 weeks, mean (SD)
  Maximum tolerated kcal, Δ: −284 (348) kcal
mean, after 16 weeks of treatment
  decrease in kilocalories until fullness, standardized liquid nutrient drink test: 133 kcal
On treatment (Rx), 16 weeks, mean (SD)
  Maximum tolerated kcal: 921 (272) kcal
